Patent publication US12729225B2, “Non-canonical SWI/SNF complex and uses thereof” (Dana-Farber Cancer Institute, Inc., priority 2018, dated 2026)

B1: EPB41 (protein, UniProt P11171 1-864, looked up)
Protein 4.1: MTTEKSLVTEAENSQHQQKEEGEEAINSGQQEPQQEESCQTAAEGDNWCEQKLKASNGDTPTHEDLTKNKERTSESRGLSRLFSSFLKRPKSQVSEEEGKEVESDKEKGEGGQKEIEFGTSLDEEIILKAPIAAPEPELKTDPSLDLHSLSSAETQPAQEELREDPDFEIKEGEGLEECSKIEVKEESPQSKAETELKASQKPIRKHRNMHCKVSLLDDTVYECVVEKHAKGQDLLKRVCEHLNLLEEDYFGLAIWDNATSKTWLDSAKEIKKQVRGVPWNFTFNVKFYPPDPAQLTEDITRYYLCLQLRQDIVAGRLPCSFATLALLGSYTIQSELGDYDPELHGVDYVSDFKLAPNQTKELEEKVMELHKSYRSMTPAQADLEFLENAKKLSMYGVDLHKAKDLEGVDIILGVCSSGLLVYKDKLRINRFPWPKVLKISYKRSSFFIKIRPGEQEQYESTIGFKLPSYRAAKKLWKVCVEHHTFFRLTSTDTIPKSKFLALGSKFRYSGRTQAQTRQASALIDRPAPHFERTASKRASRSLDGAAAVDSADRSPRPTSAPAITQGQVAEGGVLDASAKKTVVPKAQKETVKAEVKKEDEPPEQAEPEPTEAWKVEKTHIEVTVPTSNGDQTQKLAEKTEDLIRMRKKKRERLDGENIYIRHSNLMLEDLDKSQEEIKKHHASISELKKNFMESVPEPRPSEWDKRLSTHSPFRTLNINGQIPTGEGPPLVKTQTVTISDNANAVKSEIPTKDVPIVHTETKTITYEAAQTDDNSGDLDPGVLLTAQTITSETPSSTTTTQITKTVKGGISETRIEKRIVITGDADIDHDQVLVQAIKEAKEQHPDMSVTKVVVHQETEIADE
B2: SLC12A6 (protein, UniProt Q9UHW9 1-1150, looked up)
Solute carrier family 12 …: MHPPETTTKMASVRFMVTPTKIDDIPGLSDTSPDLSSRSSSRVRFSSRESVPETSRSEPMSEMSGATTSLATVALDPPSDRTSHPQDVIEDLSQNSITGEHSQLLDDGHKKARNAYLNNSNYEEGDEYFDKNLALFEEEMDTRPKVSSLLNRMANYTNLTQGAKEHEEAENITEGKKKPTKTPQMGTFMGVYLPCLQNIFGVILFLRLTWVVGTAGVLQAFAIVLICCCCTMLTAISMSAIATNGVVPAGGSYFMISRALGPEFGGAVGLCFYLGTTFAAAMYILGAIEIFLVYIVPRAAIFHSDDALKESAAMLNNMRVYGTAFLVLMVLVVFIGVRYVNKFASLFLACVIVSILAIYAGAIKSSFAPPHFPVCMLGNRTLSSRHIDVCSKTKEINNMTVPSKLWGFFCNSSQFFNATCDEYFVHNNVTSIQGIPGLASGIITENLWSNYLPKGEIIEKPSAKSSDVLGSLNHEYVLVDITTSFTLLVGIFFPSVTGIMAGSNRSGDLKDAQKSIPIGTILAILTTSFVYLSNVVLFGACIEGVVLRDKFGDAVKGNLVVGTLSWPSPWVIVIGSFFSTCGAGLQSLTGAPRLLQAIAKDNIIPFLRVFGHSKANGEPTWALLLTAAIAELGILIASLDLVAPILSMFFLMCYLFVNLACALQTLLRTPNWRPRFRYYHWALSFMGMSICLALMFISSWYYAIVAMVIAGMIYKYIEYQGAEKEWGDGIRGLSLSAARFALLRLEEGPPHTKNWRPQLLVLLKLDEDLHVKHPRLLTFASQLKAGKGLTIVGSVIVGNFLENYGEALAAEQTIKHLMEAEKVKGFCQLVVAAKLREGISHLIQSCGLGGMKHNTVVMGWPNGWRQSEDARAWKTFIGTVRVTTAAHLALLVAKNISFFPSNVEQFSEGNIDVWWIVHDGGMLMLLPFLLKQHKVWRKCSIRIFTVAQLEDNSIQMKKDLATFLYHLRIEAEVEVVEMHDSDISAYTYERTLMMEQRSQMLRHMRLSKTERDREAQLVKDRNSMLRLTSIGSDEDEETETYQEKVHMTWTKDKYMASRGQKAKSMEGFQDLLNMRPDQSNVRRMHTAVKLNEVIVNKSHEAKLVLLNMPGPPRNPEGDENYMEFLEVLTEGLERVLLVRGGGSEVITIYS
B3: ATP2A1 (protein, UniProt O14983 1-1001, looked up)
Sarcoplasmic/endoplasmic …: MEAAHAKTTEECLAYFGVSETTGLTPDQVKRNLEKYGLNELPAEEGKTLWELVIEQFEDLLVRILLLAACISFVLAWFEEGEETITAFVEPFVILLILIANAIVGVWQERNAENAIEALKEYEPEMGKVYRADRKSVQRIKARDIVPGDIVEVAVGDKVPADIRILAIKSTTLRVDQSILTGESVSVIKHTEPVPDPRAVNQDKKNMLFSGTNIAAGKALGIVATTGVGTEIGKIRDQMAATEQDKTPLQQKLDEFGEQLSKVISLICVAVWLINIGHFNDPVHGGSWFRGAIYYFKIAVALAVAAIPEGLPAVITTCLALGTRRMAKKNAIVRSLPSVETLGCTSVICSDKTGTLTTNQMSVCKMFIIDKVDGDICLLNEFSITGSTYAPEGEVLKNDKPVRPGQYDGLVELATICALCNDSSLDFNEAKGVYEKVGEATETALTTLVEKMNVFNTDVRSLSKVERANACNSVIRQLMKKEFTLEFSRDRKSMSVYCSPAKSSRAAVGNKMFVKGAPEGVIDRCNYVRVGTTRVPLTGPVKEKIMAVIKEWGTGRDTLRCLALATRDTPPKREEMVLDDSARFLEYETDLTFVGVVGMLDPPRKEVTGSIQLCRDAGIRVIMITGDNKGTAIAICRRIGIFGENEEVADRAYTGREFDDLPLAEQREACRRACCFARVEPSHKSKIVEYLQSYDEITAMTGDGVNDAPALKKAEIGIAMGSGTAVAKTASEMVLADDNFSTIVAAVEEGRAIYNNMKQFIRYLISSNVGEVVCIFLTAALGLPEALIPVQLLWVNLVTDGLPATALGFNPPDLDIMDRPPRSPKEPLISGWLFFRYMAIGGYVGAATVGAAAWWFLYAEDGPHVNYSQLTHFMQCTEDNTHFEGIDCEVFEAPEPMTMALSVLVTIEMCNALNSLSENQSLLRMPPWVNIWLLGSICLSMSLHFLILYVDPLPMIFKLRALDLTQWLMVLKISLPVIGLDEILKFVARNYLEDPEDERRK
B4: NXF1 (protein, UniProt Q9UBU9 2-619, looked up)
Nuclear RNA export factor 1: ADEGKSYSEHDDERVNFPQRKKKGRGPFRWKYGEGNRRSGRGGSGIRSSRLEEDDGDVAMSDAQDGPRVRYNPYTTRPNRRGDTWHDRDRIHVTVRRDRAPPERGGAGTSQDGTSKNWFKITIPYGRKYDKAWLLSMIQSKCSVPFTPIEFHYENTRAQFFVEDASTASALKAVNYKILDRENRRISIIINSSAPPHTILNELKPEQVEQLKLIMSKRYDGSQQALDLKGLRSDPDLVAQNIDVVLNRRSCMAATLRIIEENIPELLSLNLSNNRLYRLDDMSSIVQKAPNLKILNLSGNELKSERELDKIKGLKLEELWLDGNSLCDTFRDQSTYISAIRERFPKLLRLDGHELPPPIAFDVEAPTTLPPCKGSYFGTENLKSLVLHFLQQYYAIYDSGDRQGLLDAYHDGACCSLSIPFIPQNPARSSLAEYFKDSRNVKKLKDPTLRFRLLKHTRLNVVAFLNELPKTQHDVNSFVVDISAQTSTLLCFSVNGVFKEVDGKSRDSLRAFTRTFIAVPASNSGLCIVNDELFVRNASSEEIQRAFAMPAPTPSSSPVPTLSPEQQEMLQAFSTQSGMNLEWSQKCLQDNNWDYTRSAQAFTHLKAKGEIPEVAFMK
B5: DDX3X (protein, UniProt O00571 2-662, looked up)
ATP-dependent RNA helicase …: SHVAVENALGLDQQFAGLDLNSSDNQSGGSTASKGRYIPPHLRNREATKGFYDKDSSGWSSSKDKDAYSSFGSRSDSRGKSSFFSDRGSGSRGRFDDRGRSDYDGIGSRGDRSGFGKFERGGNSRWCDKSDEDDWSKPLPPSERLEQELFSGGNTGINFEKYDDIPVEATGNNCPPHIESFSDVEMGEIIMGNIELTRYTRPTPVQKHAIPIIKEKRDLMACAQTGSGKTAAFLLPILSQIYSDGPGEALRAMKENGRYGRRKQYPISLVLAPTRELAVQIYEEARKFSYRSRVRPCVVYGGADIGQQIRDLERGCHLLVATPGRLVDMMERGKIGLDFCKYLVLDEADRMLDMGFEPQIRRIVEQDTMPPKGVRHTMMFSATFPKEIQMLARDFLDEYIFLAVGRVGSTSENITQKVVWVEESDKRSFLLDLLNATGKDSLTLVFVETKKGADSLEDFLYHEGYACTSIHGDRSQRDREEALHQFRSGKSPILVATAVAARGLDISNVKHVINFDLPSDIEEYVHRIGRTGRVGNLGLATSFFNERNINITKDLLDLLVEAKQEVPSWLENMAYEHHYKGSSRGRSKSSRFSGGFGARDYRQSSGASSSSFSSSRASSSRSGGGGHGSSRGFGGGGYGGFYNSDGYGGNYNSQGVDWWGN
B6: INA (protein, UniProt Q16352 1-499, looked up)
Alpha-internexin: MSFGSEHYLCSSSSYRKVFGDGSRLSARLSGAGGAGGFRSQSLSRSNVASSAACSSASSLGLGLAYRRPPASDGLDLSQAAARTNEYKIIRTNEKEQLQGLNDRFAVFIEKVHQLETQNRALEAELAALRQRHAEPSRVGELFQRELRDLRAQLEEASSARSQALLERDGLAEEVQRLRARCEEESRGREGAERALKAQQRDVDGATLARLDLEKKVESLLDELAFVRQVHDEEVAELLATLQASSQAAAEVDVTVAKPDLTSALREIRAQYESLAAKNLQSAEEWYKSKFANLNEQAARSTEAIRASREEIHEYRRQLQARTIEIEGLRGANESLERQILELEERHSAEVAGYQDSIGQLENDLRNTKSEMARHLREYQDLLNVKMALDIEIAAYRKLLEGEETRFSTSGLSISGLNPLPNPSYLLPPRILSATTSKVSSTGLSLKKEEEEEEASKVASKKTSQIGESFEEILEETVISTKKTEKSNIEETTISSQKI
B7: SLC25A3 (protein, UniProt Q00325 50-362, looked up)
Solute carrier family 25 …: AVEEQYSCDYGSGRFFILCGLGGIISCGTTHTALVPLDLVKCRMQVDPQKYKGIFNGFSVTLKEDGVRGLAKGWAPTFLGYSMQGLCKFGFYEVFKVLYSNMLGEENTYLWRTSLYLAASASAEFFADIALAPMEAAKVRIQTQPGYANTLRDAAPKMYKEEGLKAFYKGVAPLWMRQIPYTMMKFACFERTVEALYKFVVPKPRSECSKPEQLVVTFVAGYIAGVFCAIVSHPADSVVSVLNKEKGSSASLVLKRLGFKGVWKGLFARIIMIGTLTALQWFIYDSVKVYFRLPRPPPPEMPESLKKKLGLTQ
B8: SCGB2A1 (protein, UniProt O75556 19-95, looked up)
Mammaglobin-B: DSGCKLLEDMVEKTINSDISIPEYKELLQEFIDSDAAAEAMGKFKQCFLNQSHRTLKNFGLMMHTVYDSIWCNMKSN
B9: TXN (protein, UniProt P10599 2-105, looked up)
Thioredoxin: VKQIESKTAFQEALDAAGDKLVVVDFSATWCGPCKMIKPFFHSLSEKYSNVIFLEVDVDDCQDVASECEVKCMPTFQFFKKGQKVGEFSGANKEKLEATINELV

System: mSWI/SNF complexes
Test: mSWI/SNF complex purification with HA-tagged baits and mass spectrometry (peptide counts)
Set-up: species or system human
[1] = 293_HA-BRD7: HA-BRD7 bait purification, total peptide count per co-purified protein
[2] = 293_HA-BRD7: HA-BRD7 bait purification, unique peptide count per co-purified protein
[3] = total peptide count of the co-purified protein, 293_HA-BRD9 (HA-BRD9 bait, mass spectrometry), Table 3b
[4] = unique peptide count of the co-purified protein, 293_HA-BRD9 (HA-BRD9 bait, mass spectrometry), Table 3b
[5] = 293_HA-BRD7 bait purification, mass spectrometry, total peptide count per identified protein
[6] = 293_HA-BRD7 bait purification, mass spectrometry, unique peptide count per identified protein

Row | Molecule | Total [1] | Unique [2] | Total [3] | Unique [4] | Total (293_HA-BRD7 bait purification, mass spectrometry, total peptides per co-purified protein) | Unique (293_HA-BRD7 bait purification, mass spectrometry, unique peptides per co-purified protein) | Total [5] | Unique [6]
1 | B1 | 9 | 9 | 1 | 1 |  |  |  | 
2 | B2 |  |  | 1 | 1 |  |  |  | 
3 | B3 | 4 | 4 | 1 | 1 |  |  |  | 
4 | B4 |  |  | 1 | 1 | 2 | 2 |  | 
5 | B5 |  |  | 1 | 1 |  |  | 1 | 1
6 | B6 |  |  | 1 | 1 |  |  | 1 | 1
7 | B7 | 10 | 10 | 1 | 1 |  |  |  | 
8 | B8 |  |  | 1 | 1 |  |  |  | 
9 | B9 |  |  | 1 | 1 |  |  |  | 
